Reference: patent US12617819 (dated 2026)

Test: general procedure: Fmoc solid-phase peptide synthesis; Rink amide MBHA resin (0.31 mmol/g)
Conditions: UPLC, TFA

NH2-Cys-Thr-Asn-Met-Leu-Trp-Gln-Val-Phe-Glu-cyclo[Lys-Ala-Arg-Lys-Glu]-Asp-Leu-Tyr-Lys-Ser-Tyr-Asp-Ser-Thr-Phe-Thr-Gly-Gln-Aib-His-H
crude HPLC purity (cyclisation step): 18.0% | crude HPLC purity (whole synthesis, scale of the general procedure 80.0 g resin): 61.6%
